From article PMC6060094, “Structural determinants of the catalytic mechanism of Plasmodium CCT, a key enzyme of malaria lipid biosynthesis” (Scientific Reports, 2018)

Assays:
PfCCT(528–795) T761A = test: Equilibrium ligand binding by isothermal titration calorimetry (ITC); design: species or system Plasmodium falciparum; conditions: 20 °C, pH 7.5
Procedure: (§1) Calorimetric measurements were performed on an ITC 200 titration calorimeter (Malvern) at 20 °C. The protein samples were dialyzed against 20 mM HEPES/NaOH pH 7.5, 100 mM NaCl, including 0.5 mM Tris(2-carboxyethyl)phosphine (TCEP) as reducing agent. CTP and CDPCho were diluted from a concentrated stock into the dialysis buffer with subsequent pH adjustment. Concentration of the titrating nucleotide ligands were determined using molar extinction coefficients 9000 M^−1 cm^−1 at 271 nm for CTP and 5000 M^−1 cm^−1 at 260 nm for CDPCho[16]. In the experimental setup, the cell of the instrument was filled with protein and the syringe with the ligand. The titrations typically included 19 steps of injection with 2 μl of ligand per injection spaced 180 s apart from each other, with the injection syringe rotating at 750 r.p.m. The data were analyzed using MICROCAL ORIGIN software following the directions of the manufacturer. To account for dilution, the invariant integrated heat value of the last 3–5 data points was subtracted from all data points. The one set of independent sites binding model was applied to data for determination of thermodynamic parameters: dissociation constant (Kd), stoichiometry (N), enthalpy (ΔH) and entropy (ΔS). Due to the low apparent affinity, the N value was fixed to a constant value of 1 in CTP titrations to PfCCT(528–795) K663A according to the low c value ITC data analysis protocol[40],[41]. For CTP and CDPCho titrations of PfCCT(528–795) K663A, and CTP titrations of T761A and T762A variants of PfCCT(528-795), mean and SD from two independent experiments are provided, whereas for CDPCho titrations of PfCCT(581–775) and PfCCT(528-795) mean and SD from three independent experiments are provided. For PfCCT(528-795) (Y626F/Q636A), errors of model fit to data of a single ligand binding experiment are given.

PfCCT(528–795) T762A = test: as above; design: species or system Plasmodium falciparum; conditions: 20 °C, pH 7.5
Procedure: as §1

SMILES: Nc1ccn([C@@H]2O[C@H](COP(=O)(O)OP(=O)(O)OP(=O)(O)O)[C@@H](O)[C@H]2O)c(=O)n1 [CTP]
- ΔGCTP (PfCCT(528–795) T761A): -5.1 ± 0.1 kcal/mol
- ΔHCTP (PfCCT(528–795) T761A): -7.0 ± 0.8 kcal/mol
- −TΔSCTP (PfCCT(528–795) T761A): 1.9 ± 1.0 kcal/mol
- ΔGCTP (PfCCT(528–795) T762A): -5.1 ± 0.1 kcal/mol
- ΔHCTP (PfCCT(528–795) T762A): -10.5 ± 0.7 kcal/mol
- −TΔSCTP (PfCCT(528–795) T762A): 5.5 ± 0.8 kcal/mol
